Data reported in PubChem BioAssay AID624291 (National Center for Advancing Translational Sciences (NCATS), 2012).
Screen size: about 350,000 compounds; about 220 (0.063%) were called active. Inconclusive means that the source gave no clear call. Such entries were picked first, then a sample of the others. Calls follow the shape of the dose curve; as a rule, active = well fitted activation curve with a large enough effect; inconclusive = small, poorly fitted or top-dose-only effect; inactive = no such curve, though single readings can be large or run the other way. A potency beside an inconclusive call is a rough fit, not a confirmed value.

Assay: qHTS for Activators of Integrin-Mediated Alleviation for Muscular Dystrophy; also: nearly all actives have a fitted effect of over 60% in size;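 as to activation: 100% = response of the positive control SU9516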
Settings: alpha7betagal myoblasts, beta-gal FDG fluorescence, 48 h; activation: at 38.3 µM (top of the series)
In short: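 Alpha7betagal+/- myoblasts (passage 13) were plated 16-24 hr, then exposed to compounds (1:260 dilution of DMSO stock) for 48 hours at 37C. After MPER lysis, β-galactosidase reporter activity was read as FDG fluorescence (ex 480/em 540) after 30 minutes.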
Potency is read from the fitted curve at half-maximal effect.

**Q.** Which activation does the source give for `Cc1oc(CSCC2CCCO2)cc1C(=O)O` (centres undefined) here?
**A.** inconclusive: -3.62% [activator]

**Q.** For `CC(C)(C)OC(=O)N[C@@H](Cc1ccccc1)c1nnc(SCC(N)=O)o1`, which Potency is on record?
**A.** inconclusive: 1.12 µM [activator, partial curve, poor fit]

**Q.** With `CCN1CCN(c2nc(S(=O)(=O)c3ccc(C)cc3)c(Cl)s2)CC1` as the compound, how does the Potency read?
**A.** inconclusive: 28.2 µM [activator, single point]

**Q.** With `Cc1ccccc1NC(=S)N(Cc1ccccc1)Cc1cccnc1` as the compound, how does the Potency read?
**A.** inactive

**Q.** For `O=S(=O)(NCCc1ccncc1)c1ccc(F)cc1`, which Potency is on record?
**A.** inconclusive: 2.24 µM [activator, partial curve, poor fit]

**Q.** With `COC(=O)c1ccc(C(=O)OC)c(NC(=S)N2CCOCC2)c1` as the compound, how does the Potency read?
**A.** inconclusive: 11.2 µM [activator, partial curve, poor fit]

**Q.** Which Potency does the source give for `C[C@H](CO)N1C[C@H](C)[C@@H](CN(C)C(=O)c2ccc(F)cc2)Oc2cc(Br)ccc2S1(=O)=O` here?
**A.** inactive

**Q.** With `Cc1c(-c2ccc(Cl)cc2)[n+](=O)c(-c2ccccc2)cn1[O-]` as the compound, how does the Potency read?
**A.** inconclusive: 28.2 µM [activator, single point]

**Q.** With `O=C(CCc1ccccc1)NNc1ccc(F)cc1` as the compound, how does the Potency read?
**A.** inconclusive: 5.01 µM [activator, single point]

**Q.** Which Potency does the source give for `COCCNCCOc1ccccc1-c1ccccc1` here?
**A.** inactive

**Q.** With `COc1ccccc1C(=O)Nc1c2c(nn1-c1ccc([N+](=O)[O-])cc1)CS(=O)(=O)C2` as the compound, how does the Potency read?
**A.** inconclusive: 1.12 µM [activator, single point]

**Q.** Which activation does the source give for `COc1ccccc1NC(=O)c1ccccc1S(=O)(=O)c1ccccc1[N+](=O)[O-]` here?
**A.** inconclusive: 25.6% [activator]

**Q.** With `Cc1cc(C)c(OCCCn2ccnc2)c(C)c1` as the compound, how does the Potency read?
**A.** inconclusive: 2.82 µM [activator, partial curve, poor fit]

**Q.** For `Cc1cccn2c(CN3CCCN(C=O)CC3)c(C(=O)N(C)CCc3ccccc3)nc12`, which Potency is on record?
**A.** inconclusive: 12.6 µM [activator, single point]

**Q.** For `CCOC(=O)N1CCN(C2CC(=O)N(c3ccc(Oc4ccccc4)cc3)C2=O)CC1` (centres undefined), which Potency is on record?
**A.** inconclusive: 1.58 µM [activator, partial curve, poor fit]

**Q.** Which Potency does the source give for `COc1cccc(NC(=O)CSc2nnc(-c3cc(C)n(-c4ccccc4)c3C)o2)c1` here?
**A.** inactive

**Q.** For `CCOc1ccc(NC(=O)C/C(C)=N/NC(=O)Cc2ccc(Cl)cc2)cc1`, which Potency is on record?
**A.** inactive

**Q.** Which Potency does the source give for `O=C(COc1ccc(Br)cc1)N(Cc1nnc(-c2ccccc2Cl)o1)C1CC1` here?
**A.** inactive

**Q.** With `CCSc1ccccc1C(=O)Nc1cccnc1` as the compound, how does the Potency read?
**A.** inconclusive: 2.51 µM [activator, full curve, poor fit]

**Q.** For `O=C(COc1cccc2cccnc12)Nc1nccs1`, which Potency is on record?
**A.** inactive

**Q.** With `COc1ccccc1N1CCN(C(=O)c2cc3cc(F)ccc3[nH]2)CC1` as the compound, how does the Potency read?
**A.** inconclusive: 5.01 µM [activator, single point]

**Q.** Which activation does the source give for `COc1cc2c(cc1OC)C(C1C(=O)CC(C)(C)CC1=O)N(C(=O)CCl)CC2` (centres undefined) here?
**A.** inconclusive: -82.7% [activator]

**Q.** Which Potency does the source give for `CCOc1ccccc1N=NC1C(=O)N(C(N)=S)N=C1C` (centres undefined) here?
**A.** inconclusive: 2.24 µM [activator, single point]

**Q.** With `O=C(CCN1CCOCC1)Nc1ccc2c(c1)CCC2` as the compound, how does the Potency read?
**A.** inconclusive: 10 µM [activator, partial curve, poor fit]

**Q.** Which Potency does the source give for `CCOC(=O)C(NC(=O)CC)(Nc1ccccc1)C(F)(F)F` (centres undefined) here?
**A.** inconclusive: 10 µM [activator, partial curve]

**Q.** Which Potency does the source give for `Cc1cc(C)n(CC(=O)c2cccc([N+](=O)[O-])c2)n1` here?
**A.** inactive

**Q.** For `N#C/C(=C\Nc1ccc(Cl)cc1)S(=O)(=O)c1ccccn1`, which Potency is on record?
**A.** inconclusive: 15.8 µM [activator, single point]

**Q.** With `CCOc1ccc(CNc2nc3ccccc3n2C)cc1` as the compound, how does the Potency read?
**A.** inconclusive: 3.16 µM [activator, single point]

**Q.** For `CCOC(=O)c1c(-c2ccc(C)o2)csc1NC(=O)CN(C)CC(=O)Nc1ccc(C)cc1`, which Potency is on record?
**A.** inactive

**Q.** Which Potency does the source give for `N#CCCN(Cc1ccccc1)C(=O)c1nccnc1C(=O)O` here?
**A.** inconclusive: 20 µM [activator, single point]

**Q.** For `CCc1nnc(NC(=O)C2CCCN2S(=O)(=O)c2ccc(C)cc2)s1` (centres undefined), which Potency is on record?
**A.** inconclusive: 11.2 µM [activator, partial curve, poor fit]

**Q.** For `O=C(N/N=C/c1cccc(OC(=O)N2CCOCC2)c1)c1cccs1`, which Potency is on record?
**A.** inconclusive: 12.6 µM [activator, single point]

**Q.** Which Potency does the source give for `Cc1ccc(NC(=O)CCC(=O)NNC(=O)COc2ccc([N+](=O)[O-])cc2)cc1C` here?
**A.** inconclusive: 28.2 µM [activator, single point]

**Q.** Which Potency does the source give for `COc1cccc(C(=O)Nc2cc(S(=O)(=O)N3CCOCC3)ccc2N2CCOCC2)c1` here?
**A.** inconclusive: 3.55 µM [activator, single point]

**Q.** For `FC(F)(F)c1n[nH]c(=S)n1/N=C/c1ccco1`, which Potency is on record?
**A.** inconclusive: 12.6 µM [activator, single point]

**Q.** For `CCC(C)(C)NC(=O)Cn1c(-c2ccc(C)cc2)noc1=O`, which Potency is on record?
**A.** inconclusive: 11.2 µM [activator, partial curve, poor fit]

**Q.** Which activation does the source give for `CCOC(=O)c1sc2nc(CC(=O)OC)nc(NCc3ccc(Cl)cc3)c2c1C` here?
**A.** inactive: -7.86% [at 7.66 µM]

**Q.** Which Potency does the source give for `CNC(=S)SCCOc1ccccc1` here?
**A.** inconclusive: 3.16 µM [activator, single point]

**Q.** For `COc1ccc(S(=O)(=O)N2CC(C(=O)O)Oc3ccc(Cl)cc32)cc1` (centres undefined), which Potency is on record?
**A.** inconclusive: 2.51 µM [activator, single point]

**Q.** For `O=C(c1ccco1)N1CCc2[nH]nc(-c3ccc(Cl)cc3)c2C1`, which Potency is on record?
**A.** inconclusive: 15.8 µM [activator, partial curve, poor fit]

**Q.** With `COc1ccc(CCNC(=O)COC(=O)CNS(=O)(=O)c2ccc(SC)c([N+](=O)[O-])c2)cc1` as the compound, how does the Potency read?
**A.** inconclusive: 10 µM [activator, single point]

**Q.** For `Cc1cc(Br)ccc1SCC(=O)OCC(=O)Nc1ccc2[nH]c(=O)[nH]c2c1`, which Potency is on record?
**A.** inactive

**Q.** Which Potency does the source give for `CN(C)c1cccc(C(=O)Nc2ccc(N3CCOCC3)cc2)c1` here?
**A.** inactive

**Q.** With `COc1ccc(C(=O)NCCCNC(=O)c2ccco2)cc1OC` as the compound, how does the Potency read?
**A.** inconclusive: 14.1 µM [activator, single point]
